Literature values, collected in patent US20100272800A1 (SANOVEL ILAC SANAYI VE TICARET ANONIM SIRKETI, priority 2009, published 2010).

Key:
[1] = target: serotonin 5HT3; details: read-out: Ki serotonin 5HT3
[2] = target: adrenergic (alpha)1 receptors; details: read-out: Ki adrenergic (alpha)1 receptors

In the case of Cc1cc2c(s1)Nc1ccccc1N=C2N1CCN(C)CC1 [Olanzapine, 2-methyl-4-(4-methyl-1-piperazinyl)-10H-thieno[2,3-b][1,5] benzodiazepine], the Ki [1] is given as 57 nM and the Ki [2] is given as 19 nM.
